{"source": "PubChem BioAssay AID1508597, Cure First – 2020", "assay": "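Survival screen with siRNA in ovarian cancer cells derived from patients, with or without rucaparib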 (primary screen)", "cell system": "human ovarian carcinoma lines grown from tumours: OCI-P5x (papillary serous) and OCI-C5x (clear cell)", "reagents": "siRNA pool against human genes, 1.25 pmol siRNA per well", "timing": "72 h or 96 h, depending on the cell culture", "challenge": "rucaparib 20 µM (about IC30) or vehicle, present until read-out", "measurement": "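ATP luminescence measured at 72 or 96 h according to the culture, then normalised and expressed as percent viability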", "direction": "viability, normalised: higher = more viable cells remaining", "active means": "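a well counts as a hit if its normalised viability is under 80 percent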", "meaning of the calls": "active = viability under 80%; inactive = viability 80% or more", "note": "The deposit covers about 2,100 reagents; below is a random part of them. 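Calls flag viability under 80% in either arm, not effects specific to rucaparib; the reference for percent is not stated.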 Not given: the 100% reference."}
{"target gene": "STRADB (STE20 related adaptor beta)", "rucaparib or vehicle": "Rucaparib", "cell line": "OCI-C5x (clear cell)", "technical replicate": "1", "viability, normalised (%)": 49.8, "Call": "active"}
{"target gene": "STRADB (STE20 related adaptor beta)", "rucaparib or vehicle": "Rucaparib", "cell line": "OCI-C5x (clear cell)", "technical replicate": "2", "viability, normalised (%)": 48.8, "Call": "active"}
{"target gene": "STRADB (STE20 related adaptor beta)", "rucaparib or vehicle": "Rucaparib", "cell line": "OCI-C5x (clear cell)", "technical replicate": "3", "viability, normalised (%)": 37.5, "Call": "active"}
{"target gene": "STRADB (STE20 related adaptor beta)", "rucaparib or vehicle": "Rucaparib", "cell line": "OCI-P5x (serous)", "technical replicate": "1", "viability, normalised (%)": 101, "Call": "inactive"}
{"target gene": "STRADB (STE20 related adaptor beta)", "rucaparib or vehicle": "Rucaparib", "cell line": "OCI-P5x (serous)", "technical replicate": "2", "viability, normalised (%)": 87.6, "Call": "inactive"}
{"target gene": "STRADB (STE20 related adaptor beta)", "rucaparib or vehicle": "Rucaparib", "cell line": "OCI-P5x (serous)", "technical replicate": "3", "viability, normalised (%)": 87, "Call": "inactive"}
{"target gene": "STRADB (STE20 related adaptor beta)", "rucaparib or vehicle": "Vehicle", "cell line": "OCI-C5x (clear cell)", "technical replicate": "1", "viability, normalised (%)": 91.1, "Call": "inactive"}
{"target gene": "STRADB (STE20 related adaptor beta)", "rucaparib or vehicle": "Vehicle", "cell line": "OCI-C5x (clear cell)", "technical replicate": "2", "viability, normalised (%)": 75.7, "Call": "active"}
{"target gene": "STRADB (STE20 related adaptor beta)", "rucaparib or vehicle": "Vehicle", "cell line": "OCI-C5x (clear cell)", "technical replicate": "3", "viability, normalised (%)": 55.9, "Call": "active"}
{"target gene": "STRADB (STE20 related adaptor beta)", "rucaparib or vehicle": "Vehicle", "cell line": "OCI-P5x (serous)", "technical replicate": "1", "viability, normalised (%)": 68, "Call": "active"}
{"target gene": "STRADB (STE20 related adaptor beta)", "rucaparib or vehicle": "Vehicle", "cell line": "OCI-P5x (serous)", "technical replicate": "2", "viability, normalised (%)": 78.8, "Call": "active"}
{"target gene": "STRADB (STE20 related adaptor beta)", "rucaparib or vehicle": "Vehicle", "cell line": "OCI-P5x (serous)", "technical replicate": "3", "viability, normalised (%)": 80.8, "Call": "inactive"}
